Source: patent EP4818148A1, “THREE-DIMENSIONAL NETWORK STRUCTURED METAL COMPLEX CRYSTAL AND METHOD FOR DETERMINING MOLECULAR STRUCTURE OF ORGANIC COMPOUND USING SAME” (The University of Tokyo, priority 2023, dated 2025)

Experiment: Ability to be analyzed for crystal structure: organic compound fixed in metal complex crystal 1, X-ray crystallography
Details: host metal complex crystal 1; 50°C, 17 hours

SMILES | Determination of the entire molecular structure by X-ray diffraction images
Fc1cccc2ccccc12 [1-fluoronaphthalene] | the entire molecular structures were determined by X-ray diffraction images
O=Cc1ccc2c3ccccc3c3ccccc3c2c1 [2-triphenylenecarboxaldehyde] | the entire molecular structures were determined by X-ray diffraction images
